PMC7431544
These are yes or no findings as the source states them, for the method shown. Binding seen in cells or lysates may run through a third protein. Some entries that bind do so weakly or less than the wild type. For part of these data: Where a sequence is shown, tags or fusion partners need not be part of it.

Protein sequences, listed by entry. Tags and fused reporters are not part of them.
UniProt P35222: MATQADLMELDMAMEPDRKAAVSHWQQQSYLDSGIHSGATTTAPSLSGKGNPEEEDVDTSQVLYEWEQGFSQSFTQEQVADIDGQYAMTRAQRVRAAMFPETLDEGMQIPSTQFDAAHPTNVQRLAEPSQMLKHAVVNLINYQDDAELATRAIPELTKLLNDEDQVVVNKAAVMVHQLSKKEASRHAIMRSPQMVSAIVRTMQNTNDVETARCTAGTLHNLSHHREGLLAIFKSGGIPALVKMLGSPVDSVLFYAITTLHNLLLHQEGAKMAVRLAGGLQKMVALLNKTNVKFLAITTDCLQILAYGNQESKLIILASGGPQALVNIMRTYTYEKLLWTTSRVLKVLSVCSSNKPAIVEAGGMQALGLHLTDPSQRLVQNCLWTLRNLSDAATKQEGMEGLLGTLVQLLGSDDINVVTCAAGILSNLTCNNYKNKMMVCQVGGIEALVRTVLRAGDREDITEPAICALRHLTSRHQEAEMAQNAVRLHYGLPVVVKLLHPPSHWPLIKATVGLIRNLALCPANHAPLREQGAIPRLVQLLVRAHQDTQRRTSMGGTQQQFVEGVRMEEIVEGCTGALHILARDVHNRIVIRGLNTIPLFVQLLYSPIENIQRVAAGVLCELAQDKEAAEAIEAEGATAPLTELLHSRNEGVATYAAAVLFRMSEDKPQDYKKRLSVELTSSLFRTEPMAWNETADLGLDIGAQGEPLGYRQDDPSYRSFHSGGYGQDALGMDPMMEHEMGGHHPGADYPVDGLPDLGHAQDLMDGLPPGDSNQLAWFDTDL
UniProt Q9NQB0: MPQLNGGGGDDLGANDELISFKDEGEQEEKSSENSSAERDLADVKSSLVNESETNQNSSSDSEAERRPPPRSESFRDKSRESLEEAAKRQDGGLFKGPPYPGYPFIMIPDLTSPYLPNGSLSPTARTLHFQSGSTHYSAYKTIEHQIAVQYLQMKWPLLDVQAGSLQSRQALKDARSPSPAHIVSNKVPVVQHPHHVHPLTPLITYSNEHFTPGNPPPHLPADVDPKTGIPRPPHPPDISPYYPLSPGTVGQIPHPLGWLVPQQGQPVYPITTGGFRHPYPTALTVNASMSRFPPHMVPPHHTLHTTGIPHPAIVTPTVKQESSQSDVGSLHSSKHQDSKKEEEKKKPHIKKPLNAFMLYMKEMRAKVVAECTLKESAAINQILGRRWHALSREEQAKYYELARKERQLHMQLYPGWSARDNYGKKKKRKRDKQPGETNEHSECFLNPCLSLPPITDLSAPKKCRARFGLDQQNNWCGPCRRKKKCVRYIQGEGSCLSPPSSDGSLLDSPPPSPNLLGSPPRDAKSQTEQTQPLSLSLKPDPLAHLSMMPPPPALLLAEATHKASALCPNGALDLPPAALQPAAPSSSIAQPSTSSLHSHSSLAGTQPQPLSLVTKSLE
UniProt P19793: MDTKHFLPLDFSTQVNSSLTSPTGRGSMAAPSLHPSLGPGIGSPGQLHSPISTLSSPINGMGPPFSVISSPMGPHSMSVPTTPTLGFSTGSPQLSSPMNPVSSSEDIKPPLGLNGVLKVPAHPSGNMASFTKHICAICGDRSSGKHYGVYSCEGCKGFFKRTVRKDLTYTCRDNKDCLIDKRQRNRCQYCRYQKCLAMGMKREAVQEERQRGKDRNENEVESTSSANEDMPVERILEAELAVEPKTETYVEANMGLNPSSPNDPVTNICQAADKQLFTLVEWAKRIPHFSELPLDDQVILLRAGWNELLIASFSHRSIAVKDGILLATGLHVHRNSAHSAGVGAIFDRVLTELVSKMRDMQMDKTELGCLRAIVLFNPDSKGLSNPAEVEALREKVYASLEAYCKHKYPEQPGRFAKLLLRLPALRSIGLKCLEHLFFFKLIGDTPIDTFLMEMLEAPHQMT

Tests used:
[1] = target: T1, Myc-tagged farnesoid X receptor (FXR) (UniProt Q96RI1); assay: co-IP; HEK293 cells co-transfected with tagged proteins; cell lysates, IP with anti-HA, anti-Myc or anti-Flag antibody; Fig. 5d with or without FXR overexpression
T1 sequence: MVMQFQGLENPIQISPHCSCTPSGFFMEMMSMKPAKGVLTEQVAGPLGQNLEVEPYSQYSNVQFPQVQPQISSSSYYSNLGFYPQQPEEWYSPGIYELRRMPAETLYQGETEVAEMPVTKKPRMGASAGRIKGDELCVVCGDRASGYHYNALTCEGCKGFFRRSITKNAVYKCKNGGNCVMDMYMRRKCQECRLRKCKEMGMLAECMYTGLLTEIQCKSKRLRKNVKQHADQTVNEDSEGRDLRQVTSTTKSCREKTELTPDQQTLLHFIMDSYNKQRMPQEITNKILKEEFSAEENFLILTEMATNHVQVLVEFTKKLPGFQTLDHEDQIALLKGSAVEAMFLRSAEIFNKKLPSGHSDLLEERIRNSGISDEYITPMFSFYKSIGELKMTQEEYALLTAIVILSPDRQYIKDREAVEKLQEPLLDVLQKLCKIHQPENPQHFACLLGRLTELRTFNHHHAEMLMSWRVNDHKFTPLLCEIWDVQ

[2] = target: T2, endogenous farnesoid X receptor (FXR) (human (endogenous in HT-29 and Caco-2)) (UniProt Q96RI1); assay: co-IP; endogenous proteins, HT-29 and Caco-2 cell lysates, IP with anti-FXR
T2 sequence: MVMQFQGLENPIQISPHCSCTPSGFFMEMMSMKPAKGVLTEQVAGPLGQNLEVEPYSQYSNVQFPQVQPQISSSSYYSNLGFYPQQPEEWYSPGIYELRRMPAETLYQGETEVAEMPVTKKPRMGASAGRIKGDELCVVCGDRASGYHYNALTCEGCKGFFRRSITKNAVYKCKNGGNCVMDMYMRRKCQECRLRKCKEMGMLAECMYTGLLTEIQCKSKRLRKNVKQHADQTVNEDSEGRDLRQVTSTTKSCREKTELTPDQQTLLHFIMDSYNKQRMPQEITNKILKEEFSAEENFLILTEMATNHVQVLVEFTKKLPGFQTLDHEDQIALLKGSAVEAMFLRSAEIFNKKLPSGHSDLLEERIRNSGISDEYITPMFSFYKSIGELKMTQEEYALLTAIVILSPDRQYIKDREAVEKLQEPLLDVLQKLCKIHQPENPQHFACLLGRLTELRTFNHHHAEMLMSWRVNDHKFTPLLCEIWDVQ

[3] = target: T3, farnesoid X receptor (FXR) expressed from the pUbi-EGFP-FXR lentiviral vector (UniProt Q96RI1); assay: co-IP; nuclear fractions of SW480-FXR and HCT116-FXR cells infected with β-catenin-shRNA, β-catenin-overexpressing or control lentivirus for 48 h, IP with anti-FXR
T3 sequence: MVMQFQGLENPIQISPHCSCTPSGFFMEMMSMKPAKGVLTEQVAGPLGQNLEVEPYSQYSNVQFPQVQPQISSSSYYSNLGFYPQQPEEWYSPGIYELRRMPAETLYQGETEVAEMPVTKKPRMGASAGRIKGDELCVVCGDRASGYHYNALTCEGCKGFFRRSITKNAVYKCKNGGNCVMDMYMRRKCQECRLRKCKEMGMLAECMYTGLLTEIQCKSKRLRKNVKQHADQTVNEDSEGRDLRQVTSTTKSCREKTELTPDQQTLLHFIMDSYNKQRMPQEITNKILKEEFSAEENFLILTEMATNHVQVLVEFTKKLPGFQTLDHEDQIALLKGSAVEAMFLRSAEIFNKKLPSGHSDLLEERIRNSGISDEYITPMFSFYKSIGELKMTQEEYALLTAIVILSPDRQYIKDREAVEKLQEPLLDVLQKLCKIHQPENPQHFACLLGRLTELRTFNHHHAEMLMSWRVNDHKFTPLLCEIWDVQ

[4] = target: Flag-tagged β-catenin (UniProt P35222); assay: co-IP; HEK293 cells co-transfected with tagged proteins; cell lysates, IP with anti-HA, anti-Myc or anti-Flag antibody; Fig. 5d with or without FXR overexpression
[5] = target: HA-tagged TCF4 (UniProt Q9NQB0); assay: as above

Molecule: Flag-tagged β-catenin (from UniProt P35222 1-781)
- binding [1]: binds

Molecule: endogenous β-catenin (from UniProt P35222 1-781)
- binding [2]: binds
- binding [3]: binds

Molecule: endogenous retinoid X receptor alpha (RXRα) (from UniProt P19793 1-462)
- binding [3]: binds

B1: Myc-tagged farnesoid X receptor (FXR) (protein, UniProt Q96RI1 1-486)
chain: MVMQFQGLENPIQISPHCSCTPSGFFMEMMSMKPAKGVLTEQVAGPLGQNLEVEPYSQYSNVQFPQVQPQISSSSYYSNLGFYPQQPEEWYSPGIYELRRMPAETLYQGETEVAEMPVTKKPRMGASAGRIKGDELCVVCGDRASGYHYNALTCEGCKGFFRRSITKNAVYKCKNGGNCVMDMYMRRKCQECRLRKCKEMGMLAECMYTGLLTEIQCKSKRLRKNVKQHADQTVNEDSEGRDLRQVTSTTKSCREKTELTPDQQTLLHFIMDSYNKQRMPQEITNKILKEEFSAEENFLILTEMATNHVQVLVEFTKKLPGFQTLDHEDQIALLKGSAVEAMFLRSAEIFNKKLPSGHSDLLEERIRNSGISDEYITPMFSFYKSIGELKMTQEEYALLTAIVILSPDRQYIKDREAVEKLQEPLLDVLQKLCKIHQPENPQHFACLLGRLTELRTFNHHHAEMLMSWRVNDHKFTPLLCEIWDVQ
- binding [4]: binds
- binding [5]: no binding
